# Results deposited as PubChem BioAssay AID1224830 (NIAID, 2016)
# Aim: 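Host factors that control LPS-induced TNF expression in human macrophages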 (primary screen)
# Cell system: human THP-1 monocytic leukaemia cells, TNF dual-luciferase reporter clone, PMA-differentiated to macrophage-like cells
# Knock-down reagent: siRNA pool against human genes, 50 nM
# Timing: LPS for 4 h, given about 3 days after siRNA transfection
# Treatment: bacterial LPS (TLR4 ligand), 10 ng/ml
# Measured: 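Ratio of firefly to renilla light, scaled to the plate median and expressed as a robust z-score per replicate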
# Direction: TNF reporter robust z-score: higher = stronger TNF reporter response to LPS
# Active means: 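a well is active when its z-score exceeds 2.8 or falls below -1.5; control wells carry no call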
# The deposit covers about 18,000 reagents; below is an unselected part. About 2,900 of all reagents (16%) count as active. 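Calls are made per well; low scores hint the gene aids the LPS response, high scores that it dampens it.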 Repeated entries: four replicate wells of each siRNA pool.
gene,TNF reporter robust z-score,activity call
UBE2J2,-1.68,active
UBE2J2,-1.23,inactive
UBE2J2,-0.01,inactive
UBE2J2,-0.87,inactive
LRP2,-0.42,inactive
LRP2,-0.63,inactive
LRP2,0.23,inactive
LRP2,-0.16,inactive
PRR23E,-0.92,inactive
PRR23E,0.53,inactive
PRR23E,2.24,inactive
PRR23E,0.98,inactive
HMCN1,-0.32,inactive
HMCN1,-0.16,inactive
HMCN1,-0.66,inactive
HMCN1,0.19,inactive
RPL3L,-0.67,inactive
RPL3L,-1.41,inactive
RPL3L,-1.62,active
RPL3L,-0.89,inactive
PUDP,0.92,inactive
PUDP,2.18,inactive
PUDP,1.77,inactive
PUDP,0.3,inactive
ASIC5,-0.49,inactive
ASIC5,-1.36,inactive
ASIC5,0.12,inactive
ASIC5,0.1,inactive
RBFOX1,0.6,inactive
RBFOX1,1.43,inactive
RBFOX1,-0.13,inactive
RBFOX1,1.37,inactive
ZFP41,1.24,inactive
ZFP41,1.01,inactive
ZFP41,0.75,inactive
ZFP41,0.07,inactive
PROK1,-1.6,active
PROK1,-1.24,inactive
PROK1,-1.36,inactive
PROK1,-0.91,inactive
SRM,-0.59,inactive
SRM,-0.29,inactive
SRM,-0.77,inactive
SRM,0.16,inactive
OR2T6,-0.49,inactive
OR2T6,0.25,inactive
OR2T6,0.07,inactive
OR2T6,-0.08,inactive
CLIP3,0.41,inactive
CLIP3,-0.01,inactive
CLIP3,0.45,inactive
CLIP3,1.07,inactive
COL9A2,1.05,inactive
COL9A2,2.1,inactive
COL9A2,2.27,inactive
COL9A2,1.84,inactive
TBC1D3B,-1.7,active
TBC1D3B,-1.25,inactive
TBC1D3B,-1.05,inactive
TBC1D3B,-1.23,inactive
EMC2,-0.09,inactive
EMC2,0.65,inactive
EMC2,0.24,inactive
BOD1L1,0.62,inactive
BOD1L1,1.87,inactive
BOD1L1,0.38,inactive
BOD1L1,0.93,inactive
KDM3A,0.05,inactive
KDM3A,0.07,inactive
KDM3A,-0.74,inactive
KDM3A,-0.2,inactive
PPP1CB,0.45,inactive
PPP1CB,2.07,inactive
PPP1CB,-0.78,inactive
PPP1CB,0.4,inactive

Reagents above marked active:
gene,TNF reporter robust z-score,activity call
UBE2J2,-1.68,active
RPL3L,-1.62,active
PROK1,-1.6,active
TBC1D3B,-1.7,active
